Some results were stated once for a whole list of compounds, not compound by compound.
Key:
[1] = test system: diamondback moth (Plutella xylostella (L.)); assay: Test A: control of diamondback moth on mustard plant, foliar spray; format: in vivo; conditions: neonate larvae, 6 days, criterion is feeding damage bound and/or 100% mortality
[2] = test system: fall armyworm (Spodoptera frugiperda (J. E. Smith)); assay: Test B: control of fall armyworm on corn plant, foliar spray; format: in vivo; conditions: 1-day-old larvae, 6 days, criterion is feeding damage bound and/or 100% mortality

| SMILES | control efficacy: feeding damage (40% or less feeding damage and/or 100% mortality) ([1]; tested at 50 ppm) [%] | control efficacy: feeding damage (40% or less feeding damage and/or 100% mortality) ([1]; tested at 250 ppm) [%] | control efficacy: feeding damage (40% or less feeding damage and/or 100% mortality) ([2]; tested at 50 ppm) [%] | control efficacy: feeding damage (40% or less feeding damage and/or 100% mortality) ([2]; tested at 250 ppm) [%] | control efficacy: feeding damage (40% or less feeding damage and/or 100% mortality) ([1]; tested at 10 ppm) [%] |
| --- | --- | --- | --- | --- | --- |
| O=C(CC(c1cccc(C(F)(F)F)c1)C(F)(F)F)Nc1ccc(Cl)c(C(=O)NCC(F)(F)F)c1 (stereo not drawn) [Compound 2] | ≤ 40 | ≤ 40 | ≤ 40 | ≤ 40 |  |
| O=C(CC(c1cc(Cl)cc(Cl)c1)C(F)(F)F)Nc1ccc(Cl)c(C(=O)NC2CC2)c1 (stereo not drawn) [Compound 3] | ≤ 40 | ≤ 40 | ≤ 40 | ≤ 40 | ≤ 40 |
| Cc1cccc(NC(=O)c2cc(NC(=O)CC(c3cccc(C(F)(F)F)c3)C(F)(F)F)ccc2Cl)c1 (stereo not drawn) [Compound 4] | ≤ 40 | ≤ 40 |  | ≤ 40 |  |
| Cc1cc(F)ccc1NC(=O)c1cc(NC(=O)CC(c2cccc(C(F)(F)F)c2)C(F)(F)F)ccc1Cl (stereo not drawn) [Compound 6] | ≤ 40 | ≤ 40 | ≤ 40 | ≤ 40 | ≤ 40 |
| O=C(CC(c1cccc(C(F)(F)F)c1)C(F)(F)F)Nc1ccc(F)c(C(=O)Nc2ccc(F)cc2)c1 (stereo not drawn) [Compound 10] | ≤ 40 | ≤ 40 | ≤ 40 | ≤ 40 | ≤ 40 |
| O=C(CC(c1cccc(C(F)(F)F)c1)C(F)(F)F)Nc1ccc(F)c(C(=O)Nc2ccc(F)cc2)c1F (stereo not drawn) [Compound 11] |  | ≤ 40 |  | ≤ 40 |  |
| O=C(CC(c1cccc(C(F)(F)F)c1)C(F)(F)F)Nc1ccc(F)c(C(=O)NC2CC2)c1F (stereo not drawn) [Compound 12] | ≤ 40 | ≤ 40 |  | ≤ 40 |  |
| O=C(CC(c1ccc(Cl)c(Cl)c1)C(F)(F)F)Nc1ccc(F)c(C(=O)NC2CC2)c1 (stereo not drawn) [Compound 14] | ≤ 40 | ≤ 40 |  | ≤ 40 |  |
| CC(C#N)NC(=O)c1c(F)ccc(NC(=O)CC(c2cccc(C(F)(F)F)c2)C(F)(F)F)c1F (stereo not drawn) [Compound 15] |  | ≤ 40 |  |  |  |
| O=C(CC(c1cc(Cl)cc(Cl)c1)C(F)(F)F)Nc1ccc(F)c(C(=O)NC2CC2)c1 (stereo not drawn) [Compound 16] | ≤ 40 | ≤ 40 | ≤ 40 | ≤ 40 |  |
| O=C(CC(c1cc(Cl)cc(Cl)c1)C(F)(F)F)Nc1ccc(Br)c(C(=O)NC2CC2)c1 (stereo not drawn) [Compound 19] | ≤ 40 | ≤ 40 |  | ≤ 40 |  |
| O=C(CC(c1cc(Cl)cc(Cl)c1)C(F)(F)F)Nc1cccc(C(=O)NC2CC2)c1 (stereo not drawn) [Compound 23] |  | ≤ 40 |  |  |  |
| O=C(CC(c1ccccc1)C(F)(F)F)Nc1cccc(C(=O)Nc2ccc(C(F)(F)F)cc2)c1F (stereo not drawn) [Compound 26] |  | ≤ 40 |  |  |  |
| O=C(CC(c1cc(F)cc(F)c1)C(F)(F)F)Nc1ccc(Cl)c(C(=O)Nc2ccc(C(F)(F)F)cn2)c1 (stereo not drawn) [Compound 29] | ≤ 40 | ≤ 40 |  |  |  |
| O=C(CC(c1ccccc1)C(F)(F)F)Nc1ccc(Cl)c(C(=O)Nc2ccc(C(F)(F)F)cc2Br)c1 (stereo not drawn) [Compound 40] |  | ≤ 40 |  |  |  |
| O=C(CC(c1ccccc1)C(F)(F)F)Nc1ccc(Cl)c(C(=O)Nc2ccc(F)cc2)c1 (stereo not drawn) [Compound 46] | ≤ 40 | ≤ 40 |  |  |  |
| O=C(CC(c1ccccc1)C(F)(F)F)Nc1ccc(Cl)c(C(=O)Nc2ccc(C(F)(F)F)cc2)c1 (stereo not drawn) [Compound 47] | ≤ 40 | ≤ 40 |  |  |  |
| O=C(CC(c1ccccc1)C(F)(F)F)Nc1ccc(Cl)c(C(=O)Nc2ccc(F)cc2F)c1 (stereo not drawn) [Compound 48] | ≤ 40 | ≤ 40 |  |  |  |
| O=C(CC(c1ccc(Cl)c(Cl)c1)C(F)(F)F)Nc1ccc(Cl)c(C(=O)Nc2ccc(C(F)(F)F)cc2)c1 (stereo not drawn) [Compound 51] |  |  |  | ≤ 40 |  |
| O=C(CC(c1cc(Cl)cc(Cl)c1)C(F)(F)F)Nc1ccc(Cl)c(C(=O)Nc2ccc(C(F)(F)F)cn2)c1 (stereo not drawn) [Compound 56] |  |  |  | ≤ 40 |  |

Reference: patent US20220386609A1, “META-DIAMIDE INSECTICIDES” (FMC Corporation, priority 2019, published 2022)
